Data from patent US20190083491.

By UniProt entry, the sequences of proteins in these tests, tags left out. Residues count along the entry.
UniProt Q06609, 2-339: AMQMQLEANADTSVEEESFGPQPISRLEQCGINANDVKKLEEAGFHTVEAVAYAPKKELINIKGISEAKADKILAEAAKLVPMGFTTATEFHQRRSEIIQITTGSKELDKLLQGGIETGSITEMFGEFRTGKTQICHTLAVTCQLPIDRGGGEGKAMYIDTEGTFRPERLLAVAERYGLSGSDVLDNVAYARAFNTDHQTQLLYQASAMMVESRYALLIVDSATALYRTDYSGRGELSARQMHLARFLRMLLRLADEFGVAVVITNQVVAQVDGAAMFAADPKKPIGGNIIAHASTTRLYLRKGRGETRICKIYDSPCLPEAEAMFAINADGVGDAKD

Target: RAD51 (Homo sapiens) (UniProt Q06609)
Assay: activity assay
Conditions: gel-based D-loop assay with supercoiled pRS306; 0.5 uM RAD51, 20 nM ssDNA, 1 mM ATP, 1 mM MgCl2, pH 7.0, 37 C; purified recombinant protein; label: 5'-32P; single-stranded DNA

Q: How did the “activity on this sequence” value turn out when “TACGAATGCACACGGTGTGGTGGGCCCAGGTATTGTTAGCGGTTTGAAGCAGGCGGCAGAAGAAGTAACAAAGGAACCTAGAGGCCTTTT [90-mer D-loop ssDNA]” was run?
A: active

Construct, isoform or probe ends are uncertain for at least one entry.
